Laboratory results taken from patent publication US9358305B2, “Targeted carriers for drug delivery across the gastrointestinal epithelium” (University of Maryland, College Park, priority 2009, dated 2016).
Some of these results come from one statement about several compounds together. At least one compound was matched to its structure with a doubt left. Ends that are not written are not given here.

Test system: mouse endothelial cells
Assay: Endocytosis of peptide phages by mouse endothelial cells
Type: cell-based
Conditions: phages expressing 5 copies of the peptide, 37° C., 1 h
From the text: (A) ELISA measurement of the binding of 7-mer peptide expressing phage library to immobilized recombinant ICAM-1 (consisting of the two most membrane-distal Ig domains—1 and 2—of mouse ICAM-1 fused to human Fc or hFc), versus their binding to control hFc. (B) Relative specificity and (C) relative affinity of ICAM-1-targeting peptide phages, determined by ELISA from the experiment in (A). (D) Relative binding of phages expressing 7-mer peptides to native ICAM-1 expressed on the surface of HV5 mouse endothelial cells, either control or activated with TNFalpha to mimic a disease phenotype. Binding was determined by microscopy using a fluorescently-labeled antibody to the phage capsid. The line in the graph indicates the level of binding of A1 phage to 293 cells, which are voided of ICAM-1-expression. […] (G) Binding of FITC-labeled anti-ICAM polystyrene nanocarriers to human endothelial cells was evaluated by fluorescence microscopy after incubation with cells in the absence (100% level) or presence of anti-ICAM antibody, ICAM-1-targeting synthetic peptides, or peptides with their scramble sequence (e.g., A1sc).

YPASYQR [A1, YPASYQR]
Internalization of phage viruses by endothelial cells: 65-87 % internalization
